Data: publication PMC8529007

Amino acid sequences for entries named in this document (tags omitted). Residues count along the entry.
UniProt P32592, residues 23-769: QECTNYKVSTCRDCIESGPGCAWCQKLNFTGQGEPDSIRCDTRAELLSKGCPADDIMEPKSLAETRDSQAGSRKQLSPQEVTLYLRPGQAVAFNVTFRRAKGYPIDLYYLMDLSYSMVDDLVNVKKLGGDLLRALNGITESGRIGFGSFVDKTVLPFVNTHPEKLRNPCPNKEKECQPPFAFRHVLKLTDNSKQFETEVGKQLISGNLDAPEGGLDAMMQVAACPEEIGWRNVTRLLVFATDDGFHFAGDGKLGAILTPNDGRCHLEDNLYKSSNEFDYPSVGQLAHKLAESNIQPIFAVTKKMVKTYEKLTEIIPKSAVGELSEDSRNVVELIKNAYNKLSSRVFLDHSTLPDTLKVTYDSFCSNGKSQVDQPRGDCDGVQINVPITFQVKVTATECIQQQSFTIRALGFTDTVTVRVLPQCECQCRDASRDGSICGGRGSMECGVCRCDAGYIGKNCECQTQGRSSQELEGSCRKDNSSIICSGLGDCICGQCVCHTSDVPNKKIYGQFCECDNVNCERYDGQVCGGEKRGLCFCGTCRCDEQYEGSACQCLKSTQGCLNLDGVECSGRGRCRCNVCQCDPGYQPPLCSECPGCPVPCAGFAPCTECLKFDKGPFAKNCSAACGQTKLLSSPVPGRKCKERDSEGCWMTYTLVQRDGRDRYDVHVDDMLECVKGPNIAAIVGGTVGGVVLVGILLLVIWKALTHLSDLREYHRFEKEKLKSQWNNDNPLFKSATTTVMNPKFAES

Key:
[1] = target: CD18 (integrin β2), dairy cow neutrophils (bovine (endogenous in dairy cow neutrophils)) (UniProt P32592); assay: affinity purification with mass spectrometry; endogenous CD11b or CD18 immunoprecipitated with a Pierce Crosslink IP kit; about 30 ug of IP complexes analysed by shotgun MS/MS (MASCOT)
[2] = target: CD11b (integrin αM), dairy cow neutrophils (bovine (endogenous in dairy cow neutrophils)); assay: as above

Molecule	binding [1]	binding [2]
Heat shock cognate 71 kDa protein (Hsc70), P19120 (from UniProt P19120 1-650)	binds	–
tripartite motif-containing protein 21 (TRIM21), Q7YRV4 (protein, UniProt Q7YRV4 1-469) MASAVPLTMMWEEVTCSICLDPMVEPMSIECGHSFCQECISEVGKEGGSVCPVCRRHFLLQNLRPNRQVANMVDNLRKISQGAKESPHGELCVVHREKIHLFCEEDGKALCWVCSQSQKHRDHPMVPIEEAAQEYQEKLQVALNKLRHKQELAEKLELDIAMKKASWKGKVEAHKLRIHEEFVRQKNFLAEEEQKQLQKLEEEERQQLRTLGDTEARLAQQIQALQELIAELERRRRGSALELLQEVKSVLERSESWNLKELDVASTDLRNVFYVPGIKKMLRTCGVHITLDPQTANPWLILSENRRQVRLANTRQEVPENEERFDSYPMVLGAQRFDSGKVYWEVDVTGKEAWDLGVCRDNVRRKGQFLLNSDTGFWIIWLWNKQKYEAGTCPQTPLHLQVPPNRIGIFLDYEASTVSFYNITDHASLIYTFSECAFAGPLRPFFNPGFNDRGTNSAPLILCPLKTGW	binds	binds

No constants are given. Whether binding was seen depends on the method and setting. Binding seen in cells or lysates may run through a third protein. A yes stands for co-enrichment or nearness to the bait. Other partners may have been found.
